{"sequences": {"note": "Amino acid sequences for entries named in this document (tags omitted).", "UniProt Q92918, whole entry": "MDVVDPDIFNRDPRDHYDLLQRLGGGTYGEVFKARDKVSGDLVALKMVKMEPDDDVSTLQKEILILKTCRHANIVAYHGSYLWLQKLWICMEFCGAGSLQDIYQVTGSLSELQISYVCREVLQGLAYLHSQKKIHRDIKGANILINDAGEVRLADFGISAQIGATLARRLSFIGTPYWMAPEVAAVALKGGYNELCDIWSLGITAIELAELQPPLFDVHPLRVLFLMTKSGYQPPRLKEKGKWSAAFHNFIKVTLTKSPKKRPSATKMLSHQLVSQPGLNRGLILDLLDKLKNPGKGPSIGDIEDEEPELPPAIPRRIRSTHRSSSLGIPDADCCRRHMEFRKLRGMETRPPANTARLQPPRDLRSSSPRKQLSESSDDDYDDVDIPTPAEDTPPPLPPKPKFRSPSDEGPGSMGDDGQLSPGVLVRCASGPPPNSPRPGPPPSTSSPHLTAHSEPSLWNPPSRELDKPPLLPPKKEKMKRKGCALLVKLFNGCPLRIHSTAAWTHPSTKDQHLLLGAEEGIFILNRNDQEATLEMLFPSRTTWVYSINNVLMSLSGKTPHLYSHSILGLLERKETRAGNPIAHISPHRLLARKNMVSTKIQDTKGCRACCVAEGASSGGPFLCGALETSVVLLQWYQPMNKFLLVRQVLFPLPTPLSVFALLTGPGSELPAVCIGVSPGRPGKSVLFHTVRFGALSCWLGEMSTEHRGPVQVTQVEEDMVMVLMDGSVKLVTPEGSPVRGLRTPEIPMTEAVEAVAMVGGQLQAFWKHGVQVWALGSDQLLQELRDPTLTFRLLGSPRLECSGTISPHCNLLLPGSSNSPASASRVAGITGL"}, "source": "patent US20250011331A1", "about": "(Nimbus Saturn, Inc., priority 2021, published 2025)", "biological_target": "HPK1 (Homo sapiens, UniProt Q92918)", "experiment": "HPK1 biochemical enzyme assay (microfluidic mobility shift)", "conditions": "read-out: HPK1 1 mM ATP Caliper IC50, 1.5 nM HPK1 (Invitrogen), 30 min preincubation, 60 min at RT, Caliper EZ Reader", "experimental": "HPK1 biochemical enzyme assay: HPK1 enzyme inhibition was measured using a microfluidic mobility shift assay. Reactions were performed in a 384-well plate, containing 1.5 nM HPK1 (Invitrogen), in assay buffer (Cama Biosciences; pH 7.4). Test compounds were titrated in ten point curves (top final assay concentration 3 μM), and preincubated with enzyme/substrate mix for 30 min prior to initiation of the reaction by addition of ATP (1 mM final concentration) and substrate (1 μM final concentration; Carna Biosciences) diluted in assay buffer supplemented by MgCl2 (final assay concentration of 5 mM). Following 60 min incubation at RT, the reaction was terminated by addition of 60 μl/well termination buffer (Carna Biosciences) and signal determination using a Caliper EZ Reader (Perkin Elmer, UK).", "note": "The match of structure and compound is tentative."}
{"compound": "CN(C)Cc1nc(Nc2ccc(-c3cnc4cc(C#N)ccn34)c3c2C(=O)NC3)ccc1C1CCOCC1", "values": [{"measurement": "IC50", "result": "< 100", "unit": "nM"}]}
